{"source": "paper PMC3114041", "about": "“Architectures of archaeal GINS complexes, essential DNA replication initiation factors” (BMC Biology, 2011)", "target": "Thermoplasma acidophilum GINS subunit (TacGins) (Thermoplasma acidophilum) (UniProt Q9HJC8)", "assay": "negative-stain electron microscopy with single particle image analysis; 50 mM Tris-HCl pH 8.0, 40 mM NaCl, 5 μg/ml protein; 2% uranyl acetate; two-dimensional class averages compared with projections of the homology model of the tetramer; both purified", "note": "Results are given in words; binding and its absence hold for the method and conditions named. Some results given as binding are weak or reduced against the parent protein; the word gives no strength.", "data": [{"binder": "Thermoplasma acidophilum GINS subunit (TacGins) (natural protein, UniProt Q9HJC8 1-233, looked up, TacGins, conserved hypothetical protein of Thermoplasma acidophilum, gene Ta1042 cloned into pET21a; the homology model counts residues 1 to 233; also called Ta1042; source: E. coli BL21 codonPlus (DE3)-RIL, purified (heat 60°C, polyethyleneimine, HiTrap Phenyl, HiTrap Q)) MKPADIDKLISEIRTAIYAEQSHRKIIEIDPDIYRKVRAALSDLQAEASEYFQKQDIENYLTMNNRFQTLKRDFRSLFQRRFEKIVAKAIYDISGETLSLLTDEEKEFIEKIHNIITEEFESFIPKREEKNEARAEAQPAPADESPTAIADQKPQEEPQVVQDQHQPPAEIPSENIEIKKEDGRYVLVMITEDLPPIAQLDRNYSLHSNDLVYLPQDLASILAKRKVALVLDQ", "values": [{"measurement": "binding", "value": "binds"}]}]}
